This is one part of the list.

Amino acid sequences for entries named in this document (tags omitted).
UniProt Q0JBA9, entry or part of it: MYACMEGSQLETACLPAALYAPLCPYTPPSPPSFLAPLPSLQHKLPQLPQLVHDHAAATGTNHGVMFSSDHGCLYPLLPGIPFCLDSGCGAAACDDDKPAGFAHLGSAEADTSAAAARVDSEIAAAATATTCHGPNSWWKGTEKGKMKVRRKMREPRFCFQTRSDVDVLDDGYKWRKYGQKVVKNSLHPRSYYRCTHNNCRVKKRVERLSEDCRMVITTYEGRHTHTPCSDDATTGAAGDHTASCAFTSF

This experiment has as its target OsWRKY34 (Oryza sativa, UniProt Q0JBA9 1-250). As to the kind of experiment: protein-binding microarray (RPBM); PBS, 2% BSA, 51.3 ng/ul salmon testes DNA, 50 uM zinc acetate, 200 nM TF, 25 C, 1 h; high values mean tight binding. The following applies: protein: recombinant; tags: N-terminal polyhistidine and DsRed monomer fusion (pET32a); label: CyDye5-dUTP incorporated in the synthesized complementary strand; 3' TTTTT single-stranded linker to array surface; dsDNA, one strand shown. An outline of the steps: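 Using Ni–NTA, transcription factors fused N-terminally to polyhistidine and DsRed were purified after expression in E. coli BL21-CodonPlus. These were incubated at 200 nM with a blocked, double-stranded custom Agilent array for 1 h at 25 °C in a buffer containing 50 µM zinc acetate, and the array was washed. The binding signal is per-feature fluorescence intensity (arbitrary units) on an Axon 4000B scanner.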
As to “TGCCCCGCTCGCCGGACTTGCCGTGGTTGACCTGCTGCCGCGGAGTCACCTAGTGCAG”, the binding signal was 11000 fluorescence intensity (a.u.).

For “CTCGCGTCGCGTCCTCTTCCGCATCGGCCCAATCCACCCGCGGAGTCACCTAGTGCAG”, the binding signal was 8980 fluorescence intensity (a.u.).

Consider “CCGCCGCTCGCTCGCCCATCCTGCCGTCGCCGCTCCGGGCCGGAGTCACCTAGTGCAG”, for which the binding signal is 9200 fluorescence intensity (a.u.).

“TCTACACTTTTTTTTTCCCTGTACCTATCGAACTCTTTGACGGAGTCACCTAGTGCAG”: the binding signal was 9240 fluorescence intensity (a.u.).

As to “GATTTGTTTTGGTGGCCGCCGGGCCCAACCTGGCATCAACCGGAGTCACCTAGTGCAG”, the binding signal is 8580 fluorescence intensity (a.u.).

Consider “GCTGTAATTTTTTCTCTGCCATCATCACTGCATTGGATTACGGAGTCACCTAGTGCAG”, for which the binding signal is 11800 fluorescence intensity (a.u.).

Turning to “CCCACTCGTCTCTGTGACCCACCCGCTTCCACTCGCGACTCGGAGTCACCTAGTGCAG”, the binding signal was 12200 fluorescence intensity (a.u.).

As for “AAGTGGTCTTGGTGGTTAGTTGTTTCCGTTGTATTCGTTCCGGAGTCACCTAGTGCAG”, the binding signal was 11100 fluorescence intensity (a.u.).

Turning to “CACTTGCATGCAGCTGCTACCTAGCTTAGCTTAGCTTAATCGGAGTCACCTAGTGCAG”, the binding signal is 8170 fluorescence intensity (a.u.).

Take “CCCACCTCCACCTCCGCCGGCCGGTACGTTTATCCACTGACGGAGTCACCTAGTGCAG”: the binding signal was 9030 fluorescence intensity (a.u.).

As to “TCTCTCACTGCATAGACACCTGTCATCCATACATCCATCTCGGAGTCACCTAGTGCAG”, the binding signal is 9330 fluorescence intensity (a.u.).

For “GGACGGAGAAGTAGTTTGGGAAGGTGTTTTCTCTCACTCACGGAGTCACCTAGTGCAG”, the binding signal was 8200 fluorescence intensity (a.u.).

For “GTCTCCATTGCACCCACGTTGGATCCGCCCTTGCACATGGCGGAGTCACCTAGTGCAG”, the binding signal was 8470 fluorescence intensity (a.u.).

Consider “AATACGGCTTGACCTGTTAATTCGATCTGTGCTTTGCTCCCGGAGTCACCTAGTGCAG”, for which the binding signal was 8060 fluorescence intensity (a.u.).

Regarding “CTGGGCTTCTGATCGCTTCCATGCTGAGTTGAGTCGTTGCCGGAGTCACCTAGTGCAG”, the binding signal is 8090 fluorescence intensity (a.u.).

In the case of “GCCAACTACCCTGTCACTCCTTCATAAATTTCCCTCACCTCGGAGTCACCTAGTGCAG”, the binding signal was 8390 fluorescence intensity (a.u.).

For the sequence “GTTGGTTTCTTTGTTCGACGTTTGATCGTCTGTCTTAAAACGGAGTCACCTAGTGCAG”, the binding signal was 10800 fluorescence intensity (a.u.).

“AGCAGCAGGGGTGGAGGGAGGAGGCGGTGTCGGGCGCATCCGGAGTCACCTAGTGCAG”: the binding signal is 14100 fluorescence intensity (a.u.).

Take “TGCATTGTTCTTTCTTTCGTTCCATAAGTCGTTGCATCAACGGAGTCACCTAGTGCAG”: the binding signal was 8270 fluorescence intensity (a.u.).

On to “GCGTATATTCTCTTTTCCCCTCCTCACAAACACACCCTAACGGAGTCACCTAGTGCAG”, for which the binding signal was 8070 fluorescence intensity (a.u.).

Consider “TGCCCGAGTGGATCGCCTGGTTTGGATGTCTTGAACTTCTCGGAGTCACCTAGTGCAG”, for which the binding signal is 9390 fluorescence intensity (a.u.).

In the case of “AATATACAGTTTTGAGTTTTGACTTAGGCTTCTTTCTACACGGAGTCACCTAGTGCAG”, the binding signal was 8840 fluorescence intensity (a.u.).

In the case of “CCTTGACAACGAGAATTTCTTCCCACGTACTTGATCGACTCGGAGTCACCTAGTGCAG”, the binding signal was 9390 fluorescence intensity (a.u.).

With “CGTTTCTTGGTTTCTTCTTGTGCGTCGCCTCGCGCATTGGCGGAGTCACCTAGTGCAG”, the binding signal is 8570 fluorescence intensity (a.u.).

Turning to “TTTTGACTTTCTCTTACACTGTTTGACCATTTATCTTATTCGGAGTCACCTAGTGCAG”, the binding signal was 14000 fluorescence intensity (a.u.).

For “TCATACATGTGATCACTCACTCACTCTCACACACACTCTCCGGAGTCACCTAGTGCAG”, the binding signal is 10100 fluorescence intensity (a.u.).

Turning to “ATGTTCTTCTCACGCGGCTTGTTCGTAACGCTGTTCAGTACGGAGTCACCTAGTGCAG”, the binding signal is 10200 fluorescence intensity (a.u.).

Turning to “AATCACTATCTGAACTTTTGCCTGAACCTCAACTTTTATCCGGAGTCACCTAGTGCAG”, the binding signal was 8060 fluorescence intensity (a.u.).

Take “CGTGGCGTATATCCCTTATTTCGATGGGTGGGCTTGGGCTCGGAGTCACCTAGTGCAG”: the binding signal was 10400 fluorescence intensity (a.u.).

In the case of “GCAATATGTTGGGCTCTGTGGTTGAGTAGGAATGATATGACGGAGTCACCTAGTGCAG”, the binding signal is 9900 fluorescence intensity (a.u.).

As for “CCCCAATTCTCCATTTCTCCTAGCTCGCCGGAAACCCTAACGGAGTCACCTAGTGCAG”, the binding signal was 9440 fluorescence intensity (a.u.).

Consider “AAAACATTCTCTTCATTTGTGGTGGTGCTTTTGTTGATTTCGGAGTCACCTAGTGCAG”, for which the binding signal was 11900 fluorescence intensity (a.u.).

For the sequence “CCTACACATACAAACTTCCAACTTTTCCGTCGCATCGTTCCGGAGTCACCTAGTGCAG”, the binding signal is 14900 fluorescence intensity (a.u.).

For “TTGGTTTGTTTGTAGGAGTTTCTAACAGCTGCAGCTTCTTCGGAGTCACCTAGTGCAG”, the binding signal is 11200 fluorescence intensity (a.u.).

With “ATTACTAAGCAGTATCATCATCTTCTCTAAAGCCGTTCCTCGGAGTCACCTAGTGCAG”, the binding signal is 8380 fluorescence intensity (a.u.).

Turning to “GATCTCTCTCTCGGCTTCTCCTCTCCTCTCTCTCTCTCTCCGGAGTCACCTAGTGCAG”, the binding signal was 8610 fluorescence intensity (a.u.).

On to “GGGGATCAAGATTTGATTTGCGAGGTTCTTTGCTTCATACCGGAGTCACCTAGTGCAG”, for which the binding signal is 8600 fluorescence intensity (a.u.).

“CTCATCACCGCCGCCCACGTCACCCTCTACGACTTCAACACGGAGTCACCTAGTGCAG”: the binding signal is 9920 fluorescence intensity (a.u.).

Regarding “GATGCTTATCCTCTCCAATTTTTTTCTCTCCTAAACTGATCGGAGTCACCTAGTGCAG”, the binding signal was 10100 fluorescence intensity (a.u.).

On to “GCTGTTTGTTGTTTCTTGCTGCCTGAATTCTCGGATGAATCGGAGTCACCTAGTGCAG”, for which the binding signal was 10700 fluorescence intensity (a.u.).

For “ATCACCTTCTTCGGCCACCCCACCTGCCGCTGCTCCGACGCGGAGTCACCTAGTGCAG”, the binding signal was 9240 fluorescence intensity (a.u.).

Consider “TTAGTATTAATGAGGACTTGTTGCTGTGGTTTTCTGACTACGGAGTCACCTAGTGCAG”, for which the binding signal was 8900 fluorescence intensity (a.u.).

(Values after paper PMC7819943, “Rice protein-binding microarrays: a tool to detect cis-acting elements near promoter regions in rice”.)
